According to paper PMC7854729 (Nature Communications, 2021):
Values joined by “and” are separate entries in the source; they are usually repeats but may differ in a detail not shown here. Identical values can stand only once. Like-named read-outs stand apart in the source and are kept apart here. This continues a long series; more values of the same kind are listed elsewhere. Where a SMILES comes first, the peptide text is derived from it.

Molecular target: T1, PLpro-WT (Severe acute respiratory syndrome coronavirus 2, UniProt P0DTD1)
T1 construct: PLpro is a domain of Nsp3—a large multidomain protein; made in house; host or cells: E. coli BL21(DE3)-Gold
Type: biochemical

CC(=O)N[C@@H](CC(C)C)C(=O)N[C@@H](CCCCN)C(=O)NCC(=O)NCC(=O)Nc1ccc2c(C)cc(=O)oc2c1 [probe] (HELM PEPTIDE1{[ac].L.K.G.G.[Cc1cc(=O)oc2cc(N[*:1])ccc12]}$$$$V2.0)
fluorescence (0.1 M PLP, time point 1): 64 and 61 and 69 | fluorescence normalised to probe only (0.1 M PLP, time point 1): 1.333 and 1.271 and 1.4375 | fluorescence (0.1 M PLP, time point 2): 71 and 69 and 77 | fluorescence normalised to probe only (0.1 M PLP, time point 2): 1.479 and 1.4375 and 1.604 | fluorescence (0.1 M PLP, time point 3): 78 and 86 | fluorescence normalised to probe only (0.1 M PLP, time point 3): 1.625 and 1.792 | fluorescence (0.1 M PLP, time point 4): 87 and 85 and 95 | fluorescence normalised to probe only (0.1 M PLP, time point 4): 1.8125 and 1.771 and 1.979 | fluorescence (0.1 M PLP, time point 5): 91 and 92 and 101 | fluorescence normalised to probe only (0.1 M PLP, time point 5): 1.896 and 1.917 and 2.104 | fluorescence (0.1 M PLP, time point 6): 95 and 97 and 105 | fluorescence normalised to probe only (0.1 M PLP, time point 6): 1.979 and 2.021 and 2.1875 | fluorescence (0.1 M PLP, time point 7): 100 and 105 and 111 | fluorescence normalised to probe only (0.1 M PLP, time point 7): 2.083 and 2.1875 and 2.3125 | fluorescence (0.1 M PLP, time point 14): 136 and 143 | fluorescence (0.1 M PLP, time point 15): 128 and 141 and 148 | fluorescence normalised to probe only (0.1 M PLP, time point 15): 2.667 and 2.9375 and 3.083 | fluorescence (0.1 M PLP, time point 16): 128 and 146 and 149 | fluorescence normalised to probe only (0.1 M PLP, time point 16): 2.667 and 3.042 and 3.104 | fluorescence (0.1 M PLP, time point 17): 133 and 150 and 155 | fluorescence normalised to probe only (0.1 M PLP, time point 17): 2.771 and 3.125 and 3.229 | fluorescence (0.1 M PLP, time point 18): 132 and 154 and 157 | fluorescence normalised to probe only (0.1 M PLP, time point 18): 2.75 and 3.208 and 3.271 | fluorescence (0.1 M PLP, time point 19): 134 and 156 and 159 | fluorescence normalised to probe only (0.1 M PLP, time point 19): 2.792 and 3.25 and 3.3125 | fluorescence (0.1 M PLP, time point 20): 137 and 159 and 163 | fluorescence normalised to probe only (0.1 M PLP, time point 20): 2.854 and 3.3125 and 3.396 | fluorescence (0.1 M PLP, time point 21): 139 and 163 and 166 | fluorescence normalised to probe only (0.1 M PLP, time point 21): 2.896 and 3.396 and 3.458 | fluorescence (0.1 M PLP, time point 22): 140 and 166 and 169 | fluorescence normalised to probe only (0.1 M PLP, time point 22): 2.917 and 3.458 and 3.521 | fluorescence (0.1 M PLP, time point 23): 142 and 172 and 171 | fluorescence normalised to probe only (0.1 M PLP, time point 23): 2.958 and 3.583 and 3.5625 | fluorescence (0.1 M PLP, time point 24): 143 and 173 | fluorescence normalised to probe only (0.1 M PLP, time point 24): 2.979 and 3.604 | fluorescence (0.1 M PLP, time point 25): 146 and 177 and 174 | fluorescence normalised to probe only (0.1 M PLP, time point 25): 3.042 and 3.6875 and 3.625 | fluorescence (0.1 M PLP, time point 26): 148 and 176 and 177 | fluorescence normalised to probe only (0.1 M PLP, time point 26): 3.083 and 3.667 and 3.6875 | fluorescence (0.1 M PLP, time point 27): 147 and 182 and 177 | fluorescence normalised to probe only (0.1 M PLP, time point 27): 3.0625 and 3.792 and 3.6875 | fluorescence (0.1 M PLP, time point 28): 148 and 180 | fluorescence normalised to probe only (0.1 M PLP, time point 28): 3.083 and 3.75 | fluorescence (0.1 M PLP, time point 29): 149 and 186 and 184 | fluorescence normalised to probe only (0.1 M PLP, time point 29): 3.104 and 3.875 and 3.833 | fluorescence (0.1 M PLP, time point 30): 151 and 189 and 184 | fluorescence normalised to probe only (0.1 M PLP, time point 30): 3.146 and 3.9375 and 3.833 | fluorescence (0.1 M PLP, time point 31): 152 and 191 and 186 | fluorescence normalised to probe only (0.1 M PLP, time point 31): 3.167 and 3.979 and 3.875 | fluorescence (0.1 M PLP, time point 32): 152 and 191 and 186 | fluorescence normalised to probe only (0.1 M PLP, time point 32): 3.167 and 3.979 and 3.875 | fluorescence (0.1 M PLP, time point 33): 154 and 196 and 188 | fluorescence normalised to probe only (0.1 M PLP, time point 33): 3.208 and 4.083 and 3.917 | fluorescence (0.1 M PLP, time point 34): 155 and 198 and 190 | fluorescence normalised to probe only (0.1 M PLP, time point 34): 3.229 and 4.125 and 3.958 | fluorescence (0.1 M PLP, time point 35): 153 and 199 and 194 | fluorescence normalised to probe only (0.1 M PLP, time point 35): 3.1875 and 4.146 and 4.042 | fluorescence (0.1 M PLP, time point 36): 155 and 201 and 192 | fluorescence normalised to probe only (0.1 M PLP, time point 36): 3.229 and 4.1875 and 4 | fluorescence (0.1 M PLP, time point 37): 156 and 203 and 193 | fluorescence normalised to probe only (0.1 M PLP, time point 37): 3.25 and 4.229 and 4.021 | fluorescence (0.1 M PLP, time point 38): 157 and 204 and 194 | fluorescence normalised to probe only (0.1 M PLP, time point 38): 3.271 and 4.25 and 4.042 | fluorescence (0.2 M PLP, time point 1): 92 and 100 and 98 | fluorescence normalised to probe only (0.2 M PLP, time point 1): 1.917 and 2.083 and 2.042 | fluorescence (0.2 M PLP, time point 2): 116 and 131 and 128 | fluorescence normalised to probe only (0.2 M PLP, time point 2): 2.417 and 2.729 and 2.667 | fluorescence (0.2 M PLP, time point 3): 140 and 158 and 154 | fluorescence normalised to probe only (0.2 M PLP, time point 3): 2.917 and 3.292 and 3.208 | fluorescence (0.2 M PLP, time point 4): 159 and 187 and 182 | fluorescence normalised to probe only (0.2 M PLP, time point 4): 3.3125 and 3.896 and 3.792 | fluorescence (0.2 M PLP, time point 5): 179 and 213 and 206 | fluorescence normalised to probe only (0.2 M PLP, time point 5): 3.729 and 4.4375 and 4.292 | fluorescence (0.2 M PLP, time point 6): 195 and 239 and 230 | fluorescence normalised to probe only (0.2 M PLP, time point 6): 4.0625 and 4.979 and 4.792 | fluorescence (0.2 M PLP, time point 7): 213 and 266 and 254 | fluorescence normalised to probe only (0.2 M PLP, time point 7): 4.4375 and 5.542 and 5.292 | fluorescence (0.2 M PLP, time point 14): 392 and 422 and 404
